Data: PubChem BioAssay AID1347076 (National Center for Advancing Translational Sciences (NCATS), 2019)
Hit rate of the full screen: of about 400,000 compounds, about 13,000 (3.2%) were called active. Inconclusive results, whose numbers are uncertain, are shown with a selection of clear calls. The call rests on the fitted dose curve; in most records, active means well fitted cell-killing curve with a large enough effect; inconclusive means small, poorly fitted or top-dose-only effect, or effect the other way; inactive means flat fitted curve, though single readings scatter. Potencies beside an inconclusive call are fits to weak or partial responses and may not hold up.

experiment: qHTS assay for MDR1-selective chemotherapeutics: Primary screen using the drug-selected MDR subline cells KB-V1; details: KB-V1 MDR cells viability, CellTiter-Glo, 72 h; activity change, negative = cytotoxicity: at 46.1 µM (top of the series); further: nearly all actives have a fitted effect of over 60% in size
Summary of the method: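 Drug-selected KB-V1 cells, grown in DMEM lacking phenol red with 10% FBS, receive compound titrations; after three days at 37 degrees C, surviving cell ATP is quantified by CellTiter-Glo luminescence and responses normalized and curve-fitted.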
On the % scale 0 is the no-effect control and ±100 the full control effect; potency means the concentration at half of the fitted maximal effect.

Structure (SMILES) | Potency | activity change, negative = cytotoxicity
O=C(C1CC1)N1CCN=C1SCc1ccc(Cl)cc1 | inactive | 
CC1(C)NC(=O)N(CC(O)CN2C(=O)NC(C)(C)C2=O)C1=O | inconclusive: 29.1 µM [rising, single point] | 
COc1ccccc1OCc1ccc(C(=O)NCc2ccco2)o1 | inconclusive: 16.4 µM [cytotoxic, single point] | 
CCOC(=O)c1sc(NC(NC(=O)c2ccco2)(C(=O)OC)C(F)(F)F)nc1C (centres undefined) | inconclusive: 9.2 µM [cytotoxic, partial curve, poor fit] | 
O=C(NC12CC3CC(CC(C3)C1)C2)N1CCC(O)CC1 | inconclusive: 29.1 µM [rising, single point] | 
COc1ccc(CCNS(=O)(=O)c2cccc(C)c2)cc1OC | inconclusive: 23.1 µM [cytotoxic, single point] | 
CC1(C(=O)Nc2ccc3c(c2)OCCO3)CCN1Cc1ccc2ccccc2c1 (centres undefined) | active: 20.6 µM | 
Cc1ccc(NN=C2C(=O)OC(C)(C)OC2=O)c(C)c1 | inconclusive: 16.4 µM [cytotoxic, partial curve, poor fit] | 
O=C(O)c1ccccc1SC1CC(=O)N(c2ccc3c(c2)OCO3)C1=O (centres undefined) | inactive | 
Cc1ccc(/C(O)=C2\C(=O)C(=O)N(Cc3cccnc3)C2c2ccccc2[N+](=O)[O-])cc1 (centres undefined) | inconclusive: 9.2 µM [rising, partial curve] | 
Cn1nc(-c2ccc(F)cc2)nc2c(=O)n(C)c(=O)nc1-2 | active: 5.17 µM | 
CCc1c(C)nc(SCC(=O)N2CCN(c3ccccc3)CC2)[nH]c1=O | inactive | 
O=C(NCc1ccccc1)c1c2c(nc3ccccc13)C(=O)N(C1CCCCC1)C2 | inactive | 
CCC(Cc1ccccc1)NC(=O)C1CCCCC1 (centres undefined) | inconclusive: 23.1 µM [cytotoxic, single point] | 
CCOc1ccc2oc(C(=O)N(C)CC(=O)Nc3ccc(OCC)c(OCC)c3)c(C)c2c1 | inactive | 
CCc1ccccc1N1C(=O)N(Cc2cc(=O)n3ccccc3n2)c2ccccc2S1(=O)=O | inactive | 
C=C1C(=O)[C@]23C[C@H]1CCC2[C@]1(C)C(=O)CC[C@@](C)(C(=O)O)C1C[C@@H]3O (some centres undefined) | inactive | 
COc1cc2c(=O)n(CC3CCCO3)c(=O)n(CC(=O)Nc3ccc(F)cc3F)c2cc1OC (centres undefined) | inconclusive: 29.1 µM [cytotoxic, single point] | 
CCN(CC)CCN(C(=O)c1ccc2c(c1)CCCC2)c1nc2c(C)cccc2s1 | inactive | 
Cc1ccc2c(c1)N(C(=O)c1ccc(F)cc1)C(C)(C)CC2(C)c1ccccc1 (centres undefined) | inconclusive: 32.6 µM [cytotoxic, partial curve, poor fit] | 
Cc1ccc(-c2cc(C(=O)OCC(=O)N(C)C3CCS(=O)(=O)C3)c3ccccc3n2)o1 (centres undefined) | inconclusive: 14.6 µM [cytotoxic, single point] | 
CCOc1ccc(CCNC(=O)COC(=O)C2=NNC(=O)CC2)cc1OCC | inconclusive: 20.6 µM [rising, single point] | 
CCCN(CCC)C(=O)Nc1ccc(F)cc1F | inconclusive: 29.1 µM [rising, single point] | 

Structure (SMILES) | Potency | activity change, negative = cytotoxicity
CCOC(=O)C(=Cc1ccc(Br)cc1)C(=O)OCC | active: 16.4 µM | 
Cc1ccc(OCC(=O)Nc2ccccc2Sc2ccc(Cl)cc2)c([N+](=O)[O-])n1 | active: 9.2 µM | 
Cc1oc2c(cc(NS(=O)(=O)c3cccs3)c3ccccc32)c1C(=O)OC(C)C | inactive | 
Cc1ccc(-c2nnc(Oc3ccc(NC(=O)c4ccccc4)cc3)c3ccccc23)cc1 | inconclusive: 2.06 µM [cytotoxic, partial curve] | 
CCC(C)N(C(=O)CSc1nnc(-c2cccs2)n1C1CC1)C1CCS(=O)(=O)C1 (centres undefined) | inactive | 
CCOc1ccc(N(CC(=O)N/N=C/c2ccccn2)S(=O)(=O)c2ccc(Cl)cc2)cc1 | inactive | 
CC(C)c1ccc(NC(=O)[C@H]2O[C@@H]3OC(C)(C)O[C@@H]3[C@H]3OC(C)(C)O[C@H]32)cc1 | inconclusive: 29.1 µM [rising, single point] | 
Cc1ccc([C@H]2C[C@@H](n3cc(C4CC4)nn3)[C@H](O)CN2Cc2cccs2)cc1 | inactive | 
Nc1nc(Nc2ccc(Cl)cc2Cl)nc(C(F)(F)F)n1 | inconclusive: 5.8 µM [cytotoxic, full curve, poor fit] | 
COc1ccccc1/C=N/Nc1nncc2ccccc12 | inactive | 
COc1ccccc1OCC(=O)Nc1cc(Cl)ccc1N1CCCCC1 | active: 14.6 µM | 
O=[N+]([O-])/C(C(=C(Cl)Cl)N1CCN(Cc2ccccc2)CC1)=C1\NCCN1Cc1ccc(Cl)nc1 | inconclusive: 29.1 µM [cytotoxic, single point] | 
O=C(c1ccccc1)c1ccc(OC(=O)N2CCCC2)cc1 | inconclusive: 11.6 µM [cytotoxic, partial curve] | 
O=C(C(c1ccccc1)c1ccccc1)N1CCN(c2ccccn2)CC1 | inconclusive: 23.1 µM [cytotoxic, single point] | 
O=C(CNC(=O)c1ccccc1)OCC(=O)c1ccc(Cl)s1 | inconclusive: 23.1 µM [rising, single point] | 
C/C(=N\NC(=O)c1cc(C)nc2ccccc12)c1ccncc1 | inconclusive: 29.1 µM [cytotoxic, single point] | 
CCOC(=O)c1sc(NC(=O)/C=C/c2cnn(CC)c2C)c(C(=O)OCC)c1C | inconclusive: 5.8 µM [cytotoxic, partial curve] | 
CCC1CCCCN1S(=O)(=O)c1ccc(C(=O)Nc2nnc(-c3ccccc3Cl)o2)cc1 (centres undefined) | inconclusive: 1.46 µM [cytotoxic, partial curve, poor fit] | 
O=C(Cn1ncc(Cl)c(Cl)c1=O)N1CCN(Cc2ccccc2)CC1 | inactive | 
COc1cccc(-c2cc(C(=O)Nc3cccnc3)no2)c1 | inconclusive: 2.59 µM [cytotoxic, partial curve, poor fit] | 
Cc1ccc(S(=O)(=O)Nc2ccccc2C(=O)NCC2CCCO2)cc1 (centres undefined) | inconclusive: 29.1 µM [cytotoxic, single point] | 
O=C(NCc1ccccc1Cl)C1CCCN1S(=O)(=O)c1ccccc1F (centres undefined) | inconclusive: 20.6 µM [cytotoxic, partial curve, poor fit] | 
CSc1ccc(CCNC(=O)C2CCCN(S(=O)(=O)N(C)c3ccc(F)cc3)C2)cc1 (centres undefined) | inconclusive: 29.1 µM [cytotoxic, single point] | 

Of the compounds above, 3 have a nitro group on carbon.
Structure (SMILES) | Potency | activity change, negative = cytotoxicity
Cc1ccc(/C(O)=C2\C(=O)C(=O)N(Cc3cccnc3)C2c2ccccc2[N+](=O)[O-])cc1 (centres undefined) | inconclusive: 9.2 µM [rising, partial curve] | 
Cc1ccc(OCC(=O)Nc2ccccc2Sc2ccc(Cl)cc2)c([N+](=O)[O-])n1 | active: 9.2 µM | 
O=[N+]([O-])/C(C(=C(Cl)Cl)N1CCN(Cc2ccccc2)CC1)=C1\NCCN1Cc1ccc(Cl)nc1 | inconclusive: 29.1 µM [cytotoxic, single point] | 

(next part)

Structure (SMILES) | Potency | activity change, negative = cytotoxicity
COc1ccccc1Nc1nc(N)nc(CSc2nc(C)cc(C)n2)n1 | active: 13 µM | 
CN(C)S(=O)(=O)N(CC(=O)NCCSCc1ccc(Cl)cc1Cl)c1ccccc1 | inconclusive: 10.3 µM [cytotoxic, partial curve, poor fit] | 
COc1cc(C(=O)Nc2ccc(Oc3ncnc4sc(-c5ccccc5)cc34)cc2)cc(OC)c1OC | inconclusive: 0.326 µM [cytotoxic, full curve, poor fit] | 
COC(=O)Nc1ccccc1C(=O)N1CCC(O)(c2ccc(Cl)cc2)CC1 | inconclusive: 16.4 µM [cytotoxic, single point] | 
CCOc1ccccc1CN1CCN(Cc2csc(C(C)=O)c2)CC1CCO (centres undefined) | inactive | 
COc1ccc(-c2[nH]ncc2Oc2ccccc2OC)c(O)c1 |  | inconclusive: -90.4%
O=C(CN(CCc1ccccc1)S(=O)(=O)c1ccc(Br)cc1)N/N=C/c1ccccc1C(=O)O | inactive | 
COc1ccc(OC)c(NC(=O)c2cccnc2Sc2ccccc2)c1 | inactive | 
O=C(NN1C(=O)C2C3C=CC(C4CC34)C2C1=O)c1ccc(Cl)cc1Cl (centres undefined) | inconclusive: 23.1 µM [cytotoxic, partial curve, poor fit] | 
CCOc1ccc(S(=O)(=O)N2CCOCC2)c2ccccc12 | inactive | 
COC(=O)[C@@]1(Cc2ccc(OC)cc2)[C@H]2c3cc(C(=O)N4CCCC4)n(Cc4ccc(S(C)(=O)=O)cc4)c3C[C@H]2CN1C(=O)c1ccccc1 | inconclusive: 16.4 µM [cytotoxic, partial curve] | 
CCS(=O)(=O)c1nc(S(=O)(=O)c2ccc(C)cc2)c(N2CC(C)CC(C)C2)s1 (centres undefined) | inconclusive: 2.31 µM [cytotoxic, full curve, poor fit] | 
COc1ccc(-n2ccnc(NCCc3ccc(S(N)(=O)=O)cc3)c2=O)cc1Cl | inactive | 
C[C@H](NC(=O)OC(C)(C)C)c1nnc(SCc2ccc(Cl)cc2Cl)o1 | active: 18.4 µM | 
Cc1ccc2[nH]c3c(c2c1)CN(C(=O)CN1c2ccc(F)cc2CCC1C)CC3 (centres undefined) | inconclusive: 18.4 µM [cytotoxic, single point] | 
Cn1c2c(c(=O)c3ccccc31)CCC(C)(C)O2 | inconclusive: 29.1 µM [cytotoxic, single point] | 
CCC(=O)c1ccc(OCC(O)Cn2nnc3ccccc32)cc1 (centres undefined) | inconclusive: 23.1 µM [cytotoxic, partial curve, poor fit] | 
COc1cc2ccccc2cc1C(=O)Nc1ccc(C)cc1 | inconclusive: 23.1 µM [cytotoxic, single point] | 
COc1ccc(NC(=O)CN(C)C(=O)c2ccc(S(=O)(=O)N3CCOCC3)cc2)cc1 | inconclusive: 32.6 µM [rising, partial curve, poor fit] | 
COc1ccc(C(C)C)cc1S(=O)(=O)NCCc1c(C)[nH]c2c(Cl)cccc12 | inconclusive: 20.6 µM [cytotoxic, single point] | 
Clc1ccc(-c2nc3ccc(Br)cn3c2Cc2ccsc2)cc1 | inactive | 
Cn1c(=O)c2ncn(CC(=O)Nc3nc(-c4ccc(Cl)cc4)cs3)c2n(C)c1=O | inactive | 
CNC(=S)Nc1cccc(-c2cnc3ccccc3n2)c1 | inconclusive: 20.6 µM [cytotoxic, single point] | 
